Source: paper PMC4516353

Columns and labels:
Test in all cases: co-IP; COS-7 cells electroporated with 200 ng of pQM plasmids, collected 24 h later; immunoprecipitation with anti-E2Tag antibody 5E11; immunoblot for E2Tag or WBSCR22 and TRMT112
[1] = target: T1, E2Tag-WBSCR22-D117A (human) (UniProt O43709)
T1 sequence: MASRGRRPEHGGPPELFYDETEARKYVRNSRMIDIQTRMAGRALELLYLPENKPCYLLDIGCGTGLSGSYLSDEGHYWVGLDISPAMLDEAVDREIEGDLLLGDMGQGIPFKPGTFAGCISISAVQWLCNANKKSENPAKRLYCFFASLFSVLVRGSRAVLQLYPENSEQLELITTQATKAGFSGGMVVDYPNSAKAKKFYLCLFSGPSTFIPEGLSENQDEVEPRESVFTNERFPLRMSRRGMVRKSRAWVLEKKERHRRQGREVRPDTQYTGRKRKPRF

[2] = target: T2, E2Tag-WBSCR22-MTD (human) (UniProt O43709)
T2 sequence: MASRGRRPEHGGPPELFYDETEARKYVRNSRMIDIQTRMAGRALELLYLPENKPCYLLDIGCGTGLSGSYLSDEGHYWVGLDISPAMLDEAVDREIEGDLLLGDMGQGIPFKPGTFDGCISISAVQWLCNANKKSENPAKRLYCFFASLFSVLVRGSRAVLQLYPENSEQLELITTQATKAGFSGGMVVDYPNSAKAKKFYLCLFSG

[3] = target: T3, E2Tag-WBSCR22 (transiently expressed in COS-7 cells) (human) (UniProt O43709)
T3 sequence: T1 sequence with A117D

[4] = target: T4, E2Tag-WBSCR22-KT/AA (human) (UniProt O43709)
T4 sequence: T1 sequence with K112A, T115A, A117D

Measured: binding

TRMT112 (endogenous, COS-7 cells)
binds: all assays above

Substitutions are numbered along the chain they refer to. These are yes or no findings as the source states them, for the method shown. Binding seen in cells or lysates may run through a third protein. A result given as binding can be weak or reduced; the word gives no strength. Where a sequence is shown, tags or fusion partners need not be part of it.
